Measurements reported in PubChem BioAssay AID1224828 (NIAID, 2016)
Purpose: 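Regulators linking TLR4 signalling to p65 nuclear translocation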 (primary screen). System: mouse RAW264.7 G9 macrophage reporter cells (GFP-p65, Tnf promoter-mCherry). Reagent: siRNA pool against mouse genes, 100 nM. Timing: 2 days siRNA transfection, then 40 min LPS before fixation. Conditions: LPS (Salmonella minnesota R595) at 10 ng/ml. Measured: 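Microscopy ratio of nuclear to perinuclear-ring GFP-p65 signal, scaled to the plate median; gene score is the average of two replicate robust z-scores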. Reading the numbers: p65 translocation robust z-score: higher = more nuclear NF-kappaB p65 after LPS than the plate median; nuclear/cytoplasmic p65 ratio: higher = more nuclear NF-kappaB p65. Hit rule: 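Called active when z exceeds 3.3 or falls under -1.56 (median of Tlr4 controls), giving activity score of at least 50; no calls for control wells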. Calls: active = hit (p65 shift raised or lowered); inactive = no clear change.
Here is one part, drawn at random, of about 17,000 reagents tested. Over the whole deposit, 762 (4.5%) are marked active. 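Active calls include both raised and lowered p65 entry, mostly lowered; wells with fewer than 50 cells lack a z-score.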 Raw values are not corrected between plates. Unmarked entries are inactive. Reagent sequences are not shown.

no.	target gene	p65 translocation robust z-score	nuclear/cytoplasmic p65 ratio, rep 1	nuclear/cytoplasmic p65 ratio, rep 2	low cell count flag
1	Fhl3	-1.7 (active)	1.32	1.2	enough cells to score
2	Wipi2	-1	1.27	1.34	enough cells to score
3	Tsc22d4	0.2	1.64	1.51	enough cells to score
4	Pcsk7	-0.83	1.37	1.28	enough cells to score
5	Mpo	0.9	1.61	1.41	enough cells to score
6	Fam243		0.888	1.22	fewer than 50 cells per well; well left out of scoring
7	Dchs1	-0.45	1.57	1.53	enough cells to score
8	Atl1	-0.44	1.54	1.44	enough cells to score
9	Pnlip	0.23	1.63	1.34	enough cells to score
10	Mtdh	0.81	1.51	1.56	enough cells to score
11	Armcx3	0.76	1.78	1.56	enough cells to score
12	Tcap	0.49	1.73	1.44	enough cells to score
13	Ccr7		1.49	1.46	fewer than 50 cells per well; well left out of scoring
14	Angpt4	-0.06	1.65	1.4	enough cells to score
15	Psmc3		0	1.23	fewer than 50 cells per well; well left out of scoring
16	Or2d36		1.3	1.24	fewer than 50 cells per well; well left out of scoring
17	D830044D21Rik	1.89	1.89	1.78	enough cells to score
18	Txnip		1.04	1.06	fewer than 50 cells per well; well left out of scoring
19	Nr0b2	-1.44	1.22	1.26	enough cells to score
20	Tlk2	-0.41	1.69	1.28	enough cells to score
21	Rarres1	-1.19	1.38	1.32	enough cells to score
22	Ces2b	0.44	1.54	2.03	enough cells to score
23	Upk2		1.38	1.21	fewer than 50 cells per well; well left out of scoring
24	Zpbp		1.23	1.27	fewer than 50 cells per well; well left out of scoring

A portion of the results above, as a working copy:
no.	target gene	p65 translocation robust z-score	nuclear/cytoplasmic p65 ratio, rep 1	nuclear/cytoplasmic p65 ratio, rep 2	low cell count flag
8	Atl1	-0.44	1.54	1.44	enough cells to score
9	Pnlip	0.23	1.63	1.34	enough cells to score
10	Mtdh	0.81	1.51	1.56	enough cells to score
11	Armcx3	0.76	1.78	1.56	enough cells to score
